Reference: patent US5972958A, “4-aminoalkoxy-1,3-dihydro-benzoimidazol-2-thiones” (American Home Products Corporation, priority 1998, dated 1999)

What follows are molecules tested on dopamine D2 receptor (assay: Intrinsic activity at the dopamine D2 receptor, ratio LowAg/HighAg). Settings: LowAg/HighAg: IC50 D2 Spiper / IC50 D2 Quin.
Type: binding
Cc1ccc(CNCCOc2cccc3[nH]c(=S)[nH]c23)cc1 [Example 2, 4-[2-(4-Methyl-benzylamino)-ethoxy]-1,3-dihydro-benzoimidazole-2-thione] showed a Ratio of 89.8.
In the case of S=c1[nH]c2cccc(OCCNCc3ccc(Cl)cc3)c2[nH]1 [Example 6, 4-[2-(4-Chloro-benzylamino)-ethoxy]-1,3-dihydro-benzoimidazole-2-thione], the Ratio is reported as 409.3.
S=c1[nH]c2cccc(OCCN3CCc4ccccc4C3)c2[nH]1 [Example 10, 4-[2-(3,4-Dihydro-1H-isoquinolin-2-yl)-ethoxy]-1,3-dihydro-benzoimidazole-2-thione] gave a Ratio of 87.6.
S=c1[nH]c2cccc(OCCNCc3cccc4ccccc34)c2[nH]1 [Example 4, 4-{2-[(Naphthalen-1-ylmethyl)-amino]-ethoxy}-1,3-dihydro-benzoimidazole-2-thione] showed a Ratio of 85.8.
For S=c1[nH]c2cc(Cl)cc(OCCNCc3cccs3)c2[nH]1 [Example 8, 6-Chloro-4-{2-[(thiophen-2-ylmethyl)-amino]-ethoxy}-1,3-dihydro-benzoimidazole-2-thione], the Ratio was 237.8.
With S=c1[nH]c2cccc(OCCNCc3ccccc3)c2[nH]1 [Example 1, 4-(2-Benzylamino-ethoxy)-1,3-dihydro-benzoimidazol-2-thione] the Ratio was 92.6.
For CC(C)(C)c1ccc(CNCCOc2cccc3[nH]c(=S)[nH]c23)cc1 [Example 5, 4-[2-(4-tert-Butyl-benzylamino)-ethoxy]-1,3-dihydro-benzoimidazole-2-thione], the Ratio was 8.4.
S=c1[nH]c2cccc(OCCCNCc3ccccc3)c2[nH]1 [Example 3] showed a Ratio of 79.9.
With S=c1[nH]c2cc(Cl)cc(OCCNCc3ccccc3)c2[nH]1 [Example 7, 4-(2-Benzylamino-ethoxy)-6-chloro-1,3-dihydro-benzoimidazole-2-thione] the Ratio was 139.0.
S=c1[nH]c2cc(Cl)cc(OCCNCc3ccsc3)c2[nH]1 [Example 9, 6-Chloro-4-{2-[(thiophen-3-ylmethyl)-amino]-ethoxy}-1,3-dihydro-benzoimidazole-2-thione] showed a Ratio of 472.2.
